These are yes or no findings as the source states them, for the method shown. In cells and extracts the contact can be indirect. Some results given as binding are weak or reduced against the parent protein; the word gives no strength.

The chains behind the UniProt entries cited, without tags or fusion partners.
UniProt P06748: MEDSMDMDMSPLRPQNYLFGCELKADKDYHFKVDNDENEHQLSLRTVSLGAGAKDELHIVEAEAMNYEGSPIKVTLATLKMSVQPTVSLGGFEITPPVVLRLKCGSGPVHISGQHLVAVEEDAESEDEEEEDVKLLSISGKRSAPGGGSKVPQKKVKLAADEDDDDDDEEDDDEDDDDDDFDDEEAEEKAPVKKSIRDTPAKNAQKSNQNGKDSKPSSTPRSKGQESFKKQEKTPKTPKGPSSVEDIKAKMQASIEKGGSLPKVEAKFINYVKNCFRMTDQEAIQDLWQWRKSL

These results are taken from PMC6877618.

Assay [1] deals with T1, ErbB3-binding protein 1 (EBP1) (human (endogenous in OCI-AML3)) (UniProt Q9UQ80).
T1 sequence: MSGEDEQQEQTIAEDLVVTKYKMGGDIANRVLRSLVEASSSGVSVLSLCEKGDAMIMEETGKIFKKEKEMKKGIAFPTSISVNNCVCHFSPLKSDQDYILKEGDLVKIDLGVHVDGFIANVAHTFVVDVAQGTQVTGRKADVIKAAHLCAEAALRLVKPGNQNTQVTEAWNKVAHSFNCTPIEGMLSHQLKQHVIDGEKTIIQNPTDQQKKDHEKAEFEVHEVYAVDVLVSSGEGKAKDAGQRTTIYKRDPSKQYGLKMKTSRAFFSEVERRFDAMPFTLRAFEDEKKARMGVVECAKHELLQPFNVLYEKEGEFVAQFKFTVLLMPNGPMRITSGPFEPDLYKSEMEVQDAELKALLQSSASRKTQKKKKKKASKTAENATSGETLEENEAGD
As to the kind of experiment: co-IP; nuclear lysates of OCI-AML3 cells; antibodies (anti-EBP1 or anti-NPM1) cross-linked to magnetic A/G beads with dimethyl pimelimidate, incubated overnight at 4 °C; western blot for EBP1 and NPM1; also done in cells treated with scramble or anti-HOXB-AS3 gapmers (HOXB-AS3 KD decreased the interacting amounts); similar experiments with a mutant NPM1-specific antibody.

Assay [2] addresses NPM1 protein (human (endogenous in OCI-AML3)) (UniProt P06748). Described as above.

In the case of “NPM1 protein (from UniProt P06748 1-294)”, the binding entry in assay [1] is listed as “binds”.

B1: ErbB3-binding protein 1 (EBP1) (protein, UniProt Q9UQ80 1-394)
chain: MSGEDEQQEQTIAEDLVVTKYKMGGDIANRVLRSLVEASSSGVSVLSLCEKGDAMIMEETGKIFKKEKEMKKGIAFPTSISVNNCVCHFSPLKSDQDYILKEGDLVKIDLGVHVDGFIANVAHTFVVDVAQGTQVTGRKADVIKAAHLCAEAALRLVKPGNQNTQVTEAWNKVAHSFNCTPIEGMLSHQLKQHVIDGEKTIIQNPTDQQKKDHEKAEFEVHEVYAVDVLVSSGEGKAKDAGQRTTIYKRDPSKQYGLKMKTSRAFFSEVERRFDAMPFTLRAFEDEKKARMGVVECAKHELLQPFNVLYEKEGEFVAQFKFTVLLMPNGPMRITSGPFEPDLYKSEMEVQDAELKALLQSSASRKTQKKKKKKASKTAENATSGETLEENEAGD
For B1, the binding entry in assay [2] is “binds”.
